Measurements as given in the supplement of paper PMC8728848.
Some of the results follow.

Experiments:
Test in all cases: glycan array binding signal (z-score within array); higher = stronger binding
Conditions in all cases: glycan notation: IUPAC condensed, linker removed
[1] = target: Fuc(a1-2)[GalNAc(a1-3)]Gal(b1-4)[Fuc(a1-3)]GlcNAc
Method in brief: (§1)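 From the Consortium for Functional Glycomics database, 3228 arrays were curated, keeping only those whose protein sequence was available. Binding is given as a within-array Z-score averaged across arrays sharing a protein sequence and across linkers. Negative Z-scores can be read as non-binding.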

[2] = target: Fuc(a1-2)[GalNAc(a1-4)]Gal(b1-4)GlcNAc
Method in brief: as §1

[3] = target: Fuc(a1-2)[GalNAc(b1-3)]Gal
Method in brief: as §1

Fuc(a1-3)GlcNAc = target: Fuc(a1-3)GlcNAc
Method in brief: as §1

[4] = target: Fuc(a1-3)[Gal(b1-4)]Glc6S
Method in brief: as §1

[5] = target: Fuc(a1-3)[Gal(b1-4)]GlcNAc
Method in brief: as §1

[6] = target: Fuc(a1-3)[Gal(b1-4)]GlcNAc(b1-2)Man(a1-3)[Fuc(a1-3)[Gal(b1-4)]GlcNAc(b1-2)Man(a1-6)]Man(b1-4)GlcNAc(b1-4)GlcNAc
Method in brief: as §1

[7] = target: Fuc(a1-3)[Gal(b1-4)]GlcNAc(b1-2)Man(a1-6)[Gal(b1-4)GlcNAc(b1-2)Man(a1-3)]Man(b1-4)GlcNAc(b1-4)GlcNAc
Method in brief: as §1

[8] = target: Fuc(a1-3)[Gal(b1-4)]GlcNAc(b1-3)Gal(b1-3)[Fuc(a1-4)]GlcNAc
Method in brief: as §1

[9] = target: Fuc(a1-3)[Gal(b1-4)]GlcNAc(b1-4)Gal(b1-4)[Fuc(a1-3)]GlcNAc
Method in brief: as §1

[10] = target: Fuc(a1-3)[Gal(b1-4)]GlcNAc(b1-4)Gal(b1-4)[Fuc(a1-3)]GlcNAc(b1-4)Gal(b1-4)[Fuc(a1-3)]GlcNAc
Method in brief: as §1

[11] = target: Fuc(a1-3)[Gal(b1-4)]GlcNAc6S
Method in brief: as §1

[12] = target: Fuc(a1-3)[Gal3S(b1-4)]Glc6S
Method in brief: as §1

[13] = target: Fuc(a1-3)[Gal3S(b1-4)]GlcNAc
Method in brief: as §1

[14] = target: Fuc(a1-3)[Gal3S(b1-4)]GlcNAc6S
Method in brief: as §1

[15] = target: Fuc(a1-3)[GalNAc(b1-4)]GlcNAc
Method in brief: as §1

Fuc(a1-4)GlcNAc = target: Fuc(a1-4)GlcNAc
Method in brief: as §1

Fuc(b1-3)GlcNAc = target: Fuc(b1-3)GlcNAc
Method in brief: as §1

Gal(a1-2)Gal = target: Gal(a1-2)Gal
Method in brief: as §1

Gal(a1-3)Gal = target: Gal(a1-3)Gal
Method in brief: as §1

Gal(a1-3)Gal(b1-3)GlcNAc = target: Gal(a1-3)Gal(b1-3)GlcNAc
Method in brief: as §1

Gal(a1-3)Gal(b1-4)Glc = target: Gal(a1-3)Gal(b1-4)Glc
Method in brief: as §1

Gal(a1-3)Gal(b1-4)GlcNAc = target: Gal(a1-3)Gal(b1-4)GlcNAc
Method in brief: as §1

[16] = target: Gal(a1-3)Gal(b1-4)[Fuc(a1-3)]GlcNAc
Method in brief: as §1

Gal(a1-3)GalNAc = target: Gal(a1-3)GalNAc
Method in brief: as §1

[17] = target: Gal(a1-3)[Gal(a1-4)]Gal(b1-4)GlcNAc
Method in brief: as §1

Gal(a1-4)Gal(b1-4)Glc = target: Gal(a1-4)Gal(b1-4)Glc
Method in brief: as §1

Gal(a1-4)Gal(b1-4)GlcNAc = target: Gal(a1-4)Gal(b1-4)GlcNAc
Method in brief: as §1

Gal(a1-4)GlcNAc = target: Gal(a1-4)GlcNAc
Method in brief: as §1

Gal(a1-6)Glc = target: Gal(a1-6)Glc
Method in brief: as §1

Gal(b1-2)Gal = target: Gal(b1-2)Gal
Method in brief: as §1

Gal(b1-3)Gal = target: Gal(b1-3)Gal
Method in brief: as §1

Gal(b1-3)Gal(b1-4)GlcNAc = target: Gal(b1-3)Gal(b1-4)GlcNAc
Method in brief: as §1

Gal(b1-3)GalNAc = target: Gal(b1-3)GalNAc
Method in brief: as §1

[18] = target: Gal(b1-3)GalNAc(b1-3)Gal(a1-4)Gal(b1-4)Glc
Method in brief: as §1

[19] = target: Gal(b1-3)GalNAc(b1-4)Gal(b1-4)Glc
Method in brief: as §1

[20] = target: Gal(b1-3)GalNAc(b1-4)[Neu5Ac(a2-3)]Gal(b1-4)Glc
Method in brief: as §1

Gal(b1-3)GlcNAc = target: Gal(b1-3)GlcNAc
Method in brief: as §1

[21] = target: Gal(b1-3)GlcNAc(b1-2)Man(a1-3)[Gal(b1-3)GlcNAc(b1-2)Man(a1-6)]Man(b1-4)GlcNAc(b1-4)GlcNAc
Method in brief: as §1

[22] = target: Gal(b1-3)GlcNAc(b1-3)Gal(b1-3)GlcNAc
Method in brief: as §1

[23] = target: Gal(b1-3)GlcNAc(b1-3)Gal(b1-4)Glc
Method in brief: as §1

[24] = target: Gal(b1-3)GlcNAc(b1-3)Gal(b1-4)GlcNAc
Method in brief: as §1

[25] = target: Gal(b1-3)[Fuc(a1-4)]GlcNAc
Method in brief: as §1

[26] = target: Gal(b1-3)[Fuc(a1-4)]GlcNAc(b1-3)Gal(b1-3)[Fuc(a1-4)]GlcNAc
Method in brief: as §1

[27] = target: Gal(b1-3)[Fuc(a1-4)]GlcNAc(b1-3)Gal(b1-4)GlcNAc
Method in brief: as §1

B1: CLC (Homo sapiens), Q9UBD9 (protein)
chain: MDLRAGDSWGMLACLCTVLWHLPAVPALNRTGDPGPGPSIQKTYDLTRYLEHQLRSLAGTYLNYLGPPFNEPDFNPPRLGAETLPRATVDLEVWRSLNDKLRLTQNYEAYSHLLCYLRGLNRQAATAELRRSLAHFCTSLQGLLGSIAGVMAALGYPLPQPLPGTEPTWTPGPAHSDFLQKMDDFWLLKELQTWLWRSAKDFNRLKKKMQPPAAAVTLHLGAHGF
glycan array binding signal (z-score) [1]: -0.821 | glycan array binding signal (z-score) [2]: -0.709 | glycan array binding signal (z-score) [3]: -0.573 | glycan array binding signal (z-score) (Fuc(a1-3)GlcNAc): -0.966 | glycan array binding signal (z-score) [4]: 0.419 | glycan array binding signal (z-score) [5]: 0.603 | glycan array binding signal (z-score) [6]: -0.566 | glycan array binding signal (z-score) [7]: -1.13 | glycan array binding signal (z-score) [8]: 0.788 | glycan array binding signal (z-score) [9]: -0.378 | glycan array binding signal (z-score) [10]: -0.386 | glycan array binding signal (z-score) [11]: -0.923 | glycan array binding signal (z-score) [12]: 0.919 | glycan array binding signal (z-score) [13]: -0.496 | glycan array binding signal (z-score) [14]: 2.72 | glycan array binding signal (z-score) [15]: 0.049 | glycan array binding signal (z-score) (Fuc(a1-4)GlcNAc): -0.798 | glycan array binding signal (z-score) (Fuc(b1-3)GlcNAc): -0.899 | glycan array binding signal (z-score) (Gal(a1-2)Gal): -0.065 | glycan array binding signal (z-score) (Gal(a1-3)Gal): 0.801 | glycan array binding signal (z-score) (Gal(a1-3)Gal(b1-3)GlcNAc): -0.75 | glycan array binding signal (z-score) (Gal(a1-3)Gal(b1-4)Glc): -0.691 | glycan array binding signal (z-score) (Gal(a1-3)Gal(b1-4)GlcNAc): -1.1 | glycan array binding signal (z-score) [16]: -0.023 | glycan array binding signal (z-score) (Gal(a1-3)GalNAc): -0.812 | glycan array binding signal (z-score) [17]: -0.598 | glycan array binding signal (z-score) (Gal(a1-4)Gal(b1-4)Glc): 0.465 | glycan array binding signal (z-score) (Gal(a1-4)Gal(b1-4)GlcNAc): 0.058 | glycan array binding signal (z-score) (Gal(a1-4)GlcNAc): -0.694 | glycan array binding signal (z-score) (Gal(a1-6)Glc): -0.312 | glycan array binding signal (z-score) (Gal(b1-2)Gal): -0.516 | glycan array binding signal (z-score) (Gal(b1-3)Gal): -0.329 | glycan array binding signal (z-score) (Gal(b1-3)Gal(b1-4)GlcNAc): -1.17 | glycan array binding signal (z-score) (Gal(b1-3)GalNAc): -0.946 | glycan array binding signal (z-score) [18]: 0.319 | glycan array binding signal (z-score) [19]: -0.663 | glycan array binding signal (z-score) [20]: -0.676 | glycan array binding signal (z-score) (Gal(b1-3)GlcNAc): 0.134 | glycan array binding signal (z-score) [21]: -1.01 | glycan array binding signal (z-score) [22]: -0.615 | glycan array binding signal (z-score) [23]: 0.888 | glycan array binding signal (z-score) [24]: -0.816 | glycan array binding signal (z-score) [25]: -0.464 | glycan array binding signal (z-score) [26]: 0.591 | glycan array binding signal (z-score) [27]: -0.167
